The values below come from paper doi:10.1101/2024.10.21.619395.

No constants are given. Whether binding was seen depends on the method and setting. Sequences can lack the tags named with a protein.

The assay addresses T1, G protein-coupled bile acid receptor 1 (GPBAR1), full length, with N-terminal FLAG and BRIL (human), Q8TDU6.
T1 chain: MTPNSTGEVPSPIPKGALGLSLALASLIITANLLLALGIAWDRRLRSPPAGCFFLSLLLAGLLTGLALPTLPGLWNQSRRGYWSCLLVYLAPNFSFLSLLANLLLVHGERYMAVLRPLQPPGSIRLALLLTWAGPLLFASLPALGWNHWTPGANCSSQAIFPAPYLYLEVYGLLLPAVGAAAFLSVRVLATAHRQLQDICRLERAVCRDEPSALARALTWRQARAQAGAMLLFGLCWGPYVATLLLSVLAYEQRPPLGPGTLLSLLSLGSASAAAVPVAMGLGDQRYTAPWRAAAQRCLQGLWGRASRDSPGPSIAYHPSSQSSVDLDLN
Kind of assay: mass photometry. Particulars: remark: other sources report otherwise.

B1: G protein-coupled bile acid receptor 1 (GPBAR1), full length, with N-terminal FLAG and BRIL, Q8TDU6 1-330 (receptor)
chain: T1 chain
Take B1: the binding entry was “no binding”.
